Measurements as given in PubChem BioAssay AID2685 (National Center for Advancing Translational Sciences (NCATS), 2010).
The other results are listed elsewhere or left out. Further columns of the screen follow, without active or inactive calls. Compounds called inactive in the main read-out are mostly missing here. Words in brackets tell the shape of the fitted curve; partial curves, single points and poor fits give uncertain potencies.

Assay: qHTS Assay for Lipid Storage Modulators in Drosophila S3 Cells;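 for cell number change: cells counted by Cell Tracker Red CMTPX staining in the red channel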
Settings: BODIPY lipid droplet fluorescence, 18-24 h; for cell number change: measured here: cell count max response, cells fed with added oleic acid
In short: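 Laser-scanning cytometry quantifies lipid droplet accumulation (500–530 nm total intensity; droplet/cell object ratio) in oleic acid-fed (400 uM added) Drosophila S3 cells treated with a concentration series. 20 uM Triacsin C defined 100% inhibition.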

[1] = measured here: lipid fluorescence (Fed channel) AC50, cells fed with added oleic acid
[2] = measured here: cell number channel AC50, cells fed with added oleic acid

CCOC(=O)c1c(C)[nH]c(C(=O)OCC(=O)NCc2ccc(OC)c(OC)c2)c1C
cell number change: -3.26%
AC50 [1]: 29.1 µM [falling, single point]

COc1cc(OC)c(C2C(C(=O)Nc3ccc(C)cc3C)=C(C)Nc3ncnn32)cc1OC (configuration not stated)
cell number change: -12.9%
AC50 [1]: 0.58 µM [falling, full curve, poor fit]

COCCn1c(SC(C)C(=O)NCC2CCCO2)nc2sc3c(c2c1=O)CCC3 (configuration not stated)
AC50 [1]: 3.26 µM [rising, single point]

CC(C)(C)C(=O)NC(=S)NNC(=O)c1ccc(-c2ccccc2)cc1
cell number change: -31.4%
AC50 [2]: 20 µM [falling, single point]

O=C(NC1CCCC1)C1CC(=O)N(c2ccc(F)c(Cl)c2)C1 (configuration not stated)
cell number change: -10.9%
AC50 [1]: 0.517 µM [falling, single point]

COc1ccccc1C1=NNC(=NCc2ccccc2)SC1
cell number change: -42.2%
AC50 [2]: 0.00461 µM [falling, full curve]

CCOC(=O)C1=C(C)NC(=O)NC1c1cc(C)sc1C (configuration not stated)
cell number change: 118%
AC50 [2]: 18.4 µM [rising, single point]
AC50 [1]: 29.1 µM [rising, single point]

CCOc1ccc(S(=O)(=O)N2CCC(C(=O)NCC3CCCO3)CC2)cc1C (configuration not stated)
cell number change: -4.62%

Cc1cc(C)c(C#N)c(SCc2ccc(C(=O)O)cc2)n1
cell number change: -17.5%
AC50 [1]: 6.51 µM [rising, single point]

CCCCC[C@H]1CN(Cc2ccccc2)C(=O)[C@@H]1CC(=O)NCc1ccccc1
cell number change: -25.7%

C1=C(CCNC2=NCCCCC2)CCCC1
cell number change: -42.1%

COc1ccc(C(=O)NC(C)CCc2ccccc2)cc1[N+](=O)[O-] (configuration not stated)
cell number change: 9.97%
AC50 [1]: 29.1 µM [falling, single point]

Cc1ccc(O)c(NC(=O)C2CCCN2C(=O)OCc2ccccc2)c1 (configuration not stated)
cell number change: 5.67%
AC50 [1]: 1.03 µM [rising, full curve]

Cc1c(O)ccc2c(-c3ccccc3)cc(=O)oc12
cell number change: 14%
AC50 [1]: 5.8 µM [rising, partial curve, poor fit]

O=C(NCc1ccco1)c1ccc(S(=O)(=O)N2CCCCCC2)cc1
cell number change: -15.4%
AC50 [1]: 0.0291 µM [falling, full curve, poor fit]

CCC(C)(C)NC(=O)C(c1ccc(OC)cc1)N(C(=O)CCC(=O)Nc1cc(C)on1)c1ccc(OC)cc1OC (configuration not stated)
cell number change: 23.3%
AC50 [1]: 1.16 µM [falling, single point]

Cc1nn2c(N3CCCC3)cc(C(C)C)nc2c1-c1ccccc1
cell number change: 4.16%
AC50 [1]: 0.651 µM [rising, single point]

O=C(O)Cc1ccc(NS(=O)(=O)c2ccccc2Cl)cc1
cell number change: 21.5%
